{"source": "PubChem BioAssay AID652259 (Drosophila RNAi Screening Center, 2013)", "test": "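Knock-downs that push a Wingless-driven reporter up or down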 (primary screen)", "cells": "Drosophila clone 8 imaginal disc epithelial cells", "reagents": "long dsRNA against Drosophila genes", "treatment": "pathway stimulated by co-transfected Wingless expression plasmid", "measurement": "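Firefly luciferase from a tcf-site Wingless reporter, measured alongside co-transfected Renilla luciferase that tracks transfection; pathway stimulated by a Wingless plasmid; the firefly-to-Renilla ratio is not deposited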", "direction": "firefly reporter light: higher = more Wg reporter light, before normalisation; Renilla control light: higher = more transfected or surviving cells", "hit rule": "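Strong candidates differ from their plate mean by at least two out of four per-plate statistical tests; weak candidates meet just one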", "meaning of the calls": "active = candidate regulator (raises or lowers reporter); inactive = not a candidate", "note": "The deposit covers about 22,000 reagents; below is an unselected part of those with a known target gene and a result. Of all reagents, 233 (1.1%) are marked active. 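Light values are raw, unnormalised plate reads; the ratio scores behind the reporter calls were not deposited.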 Reagent sequences are not shown. The record does not give: the amount of reagent, the time to read-out, the dose of the treatment."}
{"target gene": "mst (misato)", "dsRNA": "DRSC20582", "firefly reporter light, replicate 1": 7029, "Renilla control light, replicate 1": 4892, "activity call": "inactive"}
{"target gene": "CG15534", "dsRNA": "DRSC15070", "firefly reporter light, replicate 1": 5357, "Renilla control light, replicate 1": 2512, "activity call": "inactive"}
{"target gene": "CG13705", "dsRNA": "DRSC08314", "firefly reporter light, replicate 1": 1655, "firefly reporter light, replicate 2": 10476, "Renilla control light, replicate 1": 1488, "Renilla control light, replicate 2": 5365, "activity call": "inactive"}
{"target gene": "CG13705", "dsRNA": "DRSC22691", "firefly reporter light, replicate 1": 6.78e5, "firefly reporter light, replicate 2": 7.29e5, "Renilla control light, replicate 1": 3.13e5, "Renilla control light, replicate 2": 1.06e5, "activity call": "inactive"}
{"target gene": "CG12780", "dsRNA": "DRSC06169", "firefly reporter light, replicate 1": 3385, "firefly reporter light, replicate 2": 7320, "Renilla control light, replicate 1": 1106, "Renilla control light, replicate 2": 2896, "activity call": "inactive"}
{"target gene": "Gcn2", "dsRNA": "DRSC16678", "firefly reporter light, replicate 1": 3478, "firefly reporter light, replicate 2": 3942, "Renilla control light, replicate 1": 1367, "Renilla control light, replicate 2": 1441, "activity call": "inactive"}
{"target gene": "tsg (twisted gastrulation)", "dsRNA": "DRSC20380", "firefly reporter light, replicate 1": 18513, "Renilla control light, replicate 1": 8277, "activity call": "inactive"}
{"target gene": "lncRNA:CR42646 (long non-coding RNA:CR42646)", "dsRNA": "DRSC04759", "firefly reporter light, replicate 1": 24262, "Renilla control light, replicate 1": 11603, "activity call": "inactive"}
{"target gene": "tex", "dsRNA": "DRSC16517", "firefly reporter light, replicate 1": 13510, "Renilla control light, replicate 1": 3884, "activity call": "inactive"}
{"target gene": "Klp98A (Kinesin-like protein at 98A)", "dsRNA": "DRSC16724", "firefly reporter light, replicate 1": 9948, "Renilla control light, replicate 1": 4282, "activity call": "inactive"}
{"target gene": "Klp98A (Kinesin-like protein at 98A)", "dsRNA": "DRSC21834", "firefly reporter light, replicate 1": 3.76e5, "firefly reporter light, replicate 2": 4.71e5, "Renilla control light, replicate 1": 1.33e5, "Renilla control light, replicate 2": 1.74e5, "activity call": "inactive"}
{"target gene": "CG13018", "dsRNA": "DRSC06274", "firefly reporter light, replicate 1": 6148, "Renilla control light, replicate 1": 2055, "activity call": "inactive"}
{"target gene": "CG31391", "dsRNA": "DRSC16047", "firefly reporter light, replicate 1": 11049, "Renilla control light, replicate 1": 2728, "activity call": "inactive"}
{"target gene": "CG13137", "dsRNA": "DRSC02234", "firefly reporter light, replicate 1": 2368, "firefly reporter light, replicate 2": 5738, "Renilla control light, replicate 1": 982, "Renilla control light, replicate 2": 3275, "activity call": "inactive"}
{"target gene": "CG3719", "dsRNA": "DRSC18493", "firefly reporter light, replicate 1": 3931, "Renilla control light, replicate 1": 1149, "activity call": "inactive"}
{"target gene": "Alg-2 (Apoptosis-linked gene-2)", "dsRNA": "DRSC07799", "firefly reporter light, replicate 1": 4133, "Renilla control light, replicate 1": 1884, "activity call": "inactive"}
{"target gene": "CG15456", "dsRNA": "DRSC20527", "firefly reporter light, replicate 1": 17048, "Renilla control light, replicate 1": 11799, "activity call": "inactive"}

Copied from the entries so far, 2 entries:
{"target gene": "Klp98A (Kinesin-like protein at 98A)", "dsRNA": "DRSC16724", "firefly reporter light, replicate 1": 9948, "Renilla control light, replicate 1": 4282, "activity call": "inactive"}
{"target gene": "Klp98A (Kinesin-like protein at 98A)", "dsRNA": "DRSC21834", "firefly reporter light, replicate 1": 3.76e5, "firefly reporter light, replicate 2": 4.71e5, "Renilla control light, replicate 1": 1.33e5, "Renilla control light, replicate 2": 1.74e5, "activity call": "inactive"}
